Positions count from the first letter of the chain named. Names and notes keep the numbering of the source.
B1: TGLLK: Tgo: V93Q, D141A, E143A, Y409G, A485L, I521L, F545L, E664K; previously described parent polymerase (protein, UniProt P56689 1-773, looked up, variant V93Q D141A E143A Y409G A485L I521L F545L E664K)
DNA polymerase: MILDTDYITEDGKPVIRIFKKENGEFKIDYDRNFEPYIYALLKDDSAIEDVKKITAERHGTTVRVVRAEKVKKKFLGRPIEVWKLYFTHPQDQPAIRDKIKEHPAVVDIYEYDIPFAKRYLIDKGLIPMEGDEELKMLAFAIATLYHEGEEFAEGPILMISYADEEGARVITWKNIDLPYVDVVSTEKEMIKRFLKVVKEKDPDVLITYNGDNFDFAYLKKRSEKLGVKFILGREGSEPKIQRMGDRFAVEVKGRIHFDLYPVIRRTINLPTYTLEAVYEAIFGQPKEKVYAEEIAQAWETGEGLERVARYSMEDAKVTYELGKEFFPMEAQLSRLVGQSLWDVSRSSTGNLVEWFLLRKAYERNELAPNKPDERELARRRESYAGGYVKEPERGLWENIVYLDFRSLGPSIIITHNVSPDTLNREGCEEYDVAPQVGHKFCKDFPGFIPSLLGDLLEERQKVKKKMKATIDPIEKKLLDYRQRLIKILANSFYGYYGYAKARWYCKECAESVTAWGRQYLETTIREIEEKFGFKVLYADTDGFLATIPGADAETVKKKAKEFLDYINAKLPGLLELEYEGFYKRGFFVTKKKYAVIDEEDKITTRGLEIVRRDWSEIAKETQARVLEAILKHGDVEEAVRIVKEVTEKLSKYEVPPEKLVIYKQITRDLKDYKATGPHVAVAKRLAARGIKIRPGTVISYIVLKGSGRIGDRAIPFDEFDPAKHKYDAEYYIENQVLPAVERILRAFGYRKEDLRYQKTRQVGLGAWLKPKT
B2: 2M: Tgo polymerase with V93Q, D141A, E143A, Y409G, A485L, I521L, T541G, F545L, K592A, E664K (SEQ ID NO: 3) (protein)
chain: B1 DNA polymerase with T541G, K592A
B3: 3M: Tgo polymerase as 2M but with E664R (SEQ ID NO: 4) (protein)
chain: B1 DNA polymerase with T541G, K592A, K664R

Assay: Fidelity of 2′OMe-RNA synthesis by barcoded NGS
Assay type: biochemical
Conditions: 2′OMe synthesis and RT by SSIII

**Q.** Which results are given for B1?
**A.** substitutions 2′OMeA −> C: 609 per 10^6 bases; substitutions 2′OMeA −> G: 10 per 10^6 bases; substitutions 2′OMeA −> T: 9 per 10^6 bases; substitutions 2′OMeC −> A: 24 per 10^6 bases; substitutions 2′OMeC −> G: 1 per 10^6 bases; substitutions 2′OMeC −> T: 64 per 10^6 bases; substitutions 2′OMeG −> A: 184 per 10^6 bases; substitutions 2′OMeG −> C: 224 per 10^6 bases; substitutions 2′OMeG −> T: 216 per 10^6 bases; substitutions 2′OMeU −> A: 40 per 10^6 bases; substitutions 2′OMeU −> C: 76 per 10^6 bases; substitutions 2′OMeU −> G: 1 per 10^6 bases

**Q.** With B2 as the molecule, how does the “substitutions 2′OMeA −> C” value read?
**A.** 425 per 10^6 bases

**Q.** What about the “substitutions 2′OMeA −> G” value of the same molecule?
**A.** 5 per 10^6 bases

**Q.** And the “substitutions 2′OMeA −> T” value?
**A.** 5 per 10^6 bases

**Q.** What about the “substitutions 2′OMeC −> A” value of the same molecule?
**A.** 5 per 10^6 bases

**Q.** And the “substitutions 2′OMeC −> G” value?
**A.** 0 per 10^6 bases

**Q.** And the “substitutions 2′OMeC −> T” value?
**A.** 23 per 10^6 bases

**Q.** And the “substitutions 2′OMeG −> A” value?
**A.** 44 per 10^6 bases

**Q.** And the “substitutions 2′OMeG −> C” value?
**A.** 16 per 10^6 bases

**Q.** What about the “substitutions 2′OMeG −> T” value of the same molecule?
**A.** 16 per 10^6 bases

**Q.** What about the “substitutions 2′OMeU −> A” value of the same molecule?
**A.** 7 per 10^6 bases

**Q.** What about the “substitutions 2′OMeU −> C” value of the same molecule?
**A.** 44 per 10^6 bases

**Q.** What about the “substitutions 2′OMeU −> G” value of the same molecule?
**A.** 0 per 10^6 bases

**Q.** For B3, which “substitutions 2′OMeA −> C” value is on record?
**A.** 67 per 10^6 bases

**Q.** And the “substitutions 2′OMeA −> G” value?
**A.** 120 per 10^6 bases

**Q.** What about the “substitutions 2′OMeA −> T” value of the same molecule?
**A.** 55 per 10^6 bases

**Q.** And the “substitutions 2′OMeC −> A” value?
**A.** 88 per 10^6 bases

**Q.** What about the “substitutions 2′OMeC −> G” value of the same molecule?
**A.** 34 per 10^6 bases

**Q.** And the “substitutions 2′OMeC −> T” value?
**A.** 188 per 10^6 bases

**Q.** What about the “substitutions 2′OMeG −> A” value of the same molecule?
**A.** 179 per 10^6 bases

**Q.** And the “substitutions 2′OMeG −> C” value?
**A.** 58 per 10^6 bases

**Q.** What about the “substitutions 2′OMeG −> T” value of the same molecule?
**A.** 212 per 10^6 bases

**Q.** And the “substitutions 2′OMeU −> A” value?
**A.** 6 per 10^6 bases

**Q.** And the “substitutions 2′OMeU −> C” value?
**A.** 222 per 10^6 bases

**Q.** What about the “substitutions 2′OMeU −> G” value of the same molecule?
**A.** 1 per 10^6 bases

Same assay, conditions: 2′OMe-RNA synthesis

**Q.** Which Mean error rate does the source give for B1 here?
**A.** 1.5 +/− 0.5 ×10^−3

**Q.** With B2 as the molecule, how does the Mean error rate read?
**A.** 0.65 +/− 0.3 ×10^−3

**Q.** Which Mean error rate does the source give for B3 here?
**A.** 1.3 +/− 0.6 ×10^−3

Same assay, conditions: 2′OMe-RNA synthesis, RT by SSIII

**Q.** What does the source list for B1?
**A.** Experiment 1: error rate: 1.61 × 10^−3; Experiment 2: error rate: 6.87 × 10^−4; Experiment 3: error rate: 1.93 × 10^−3; Experiment 4: error rate: 1.65 × 10^−3

**Q.** For B2, which “Experiment 1: error rate” value is on record?
**A.** 8.17 × 10^−4

**Q.** What about the “Experiment 2: error rate” value of the same molecule?
**A.** 4.99 × 10^−4

**Q.** And the “Experiment 3: error rate” value?
**A.** 1.00 × 10^−3

**Q.** And the “Experiment 4: error rate” value?
**A.** 2.63 × 10^−4

**Q.** For B3, which “Experiment 1: error rate” value is on record?
**A.** 1.35 × 10^−3

**Q.** What about the “Experiment 2: error rate” value of the same molecule?
**A.** 1.77 × 10^−3

**Q.** And the “Experiment 3: error rate” value?
**A.** 9.67 × 10^−4

**Q.** And the “Experiment 4: error rate” value?
**A.** 1.20 × 10^−3
